Article PMC6858710
These are yes or no findings as the source states them, for the method shown. In cells and extracts the contact can be indirect. Binding calls can cover weak binding; strength is not graded here.

Sequences of proteins named here, by UniProt entry; tags and fusion partners are left off. A change or cut given only in a name is not applied to a line headed by its entry.
UniProt P11309: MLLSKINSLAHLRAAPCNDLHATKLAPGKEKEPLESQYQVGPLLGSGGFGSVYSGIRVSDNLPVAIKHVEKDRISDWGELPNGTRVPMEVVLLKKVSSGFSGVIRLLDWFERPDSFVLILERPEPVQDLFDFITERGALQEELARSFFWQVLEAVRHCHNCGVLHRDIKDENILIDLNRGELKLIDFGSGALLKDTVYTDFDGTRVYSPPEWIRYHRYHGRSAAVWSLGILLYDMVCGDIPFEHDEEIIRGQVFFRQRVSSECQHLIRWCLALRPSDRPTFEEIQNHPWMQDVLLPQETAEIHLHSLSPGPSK
UniProt O95644: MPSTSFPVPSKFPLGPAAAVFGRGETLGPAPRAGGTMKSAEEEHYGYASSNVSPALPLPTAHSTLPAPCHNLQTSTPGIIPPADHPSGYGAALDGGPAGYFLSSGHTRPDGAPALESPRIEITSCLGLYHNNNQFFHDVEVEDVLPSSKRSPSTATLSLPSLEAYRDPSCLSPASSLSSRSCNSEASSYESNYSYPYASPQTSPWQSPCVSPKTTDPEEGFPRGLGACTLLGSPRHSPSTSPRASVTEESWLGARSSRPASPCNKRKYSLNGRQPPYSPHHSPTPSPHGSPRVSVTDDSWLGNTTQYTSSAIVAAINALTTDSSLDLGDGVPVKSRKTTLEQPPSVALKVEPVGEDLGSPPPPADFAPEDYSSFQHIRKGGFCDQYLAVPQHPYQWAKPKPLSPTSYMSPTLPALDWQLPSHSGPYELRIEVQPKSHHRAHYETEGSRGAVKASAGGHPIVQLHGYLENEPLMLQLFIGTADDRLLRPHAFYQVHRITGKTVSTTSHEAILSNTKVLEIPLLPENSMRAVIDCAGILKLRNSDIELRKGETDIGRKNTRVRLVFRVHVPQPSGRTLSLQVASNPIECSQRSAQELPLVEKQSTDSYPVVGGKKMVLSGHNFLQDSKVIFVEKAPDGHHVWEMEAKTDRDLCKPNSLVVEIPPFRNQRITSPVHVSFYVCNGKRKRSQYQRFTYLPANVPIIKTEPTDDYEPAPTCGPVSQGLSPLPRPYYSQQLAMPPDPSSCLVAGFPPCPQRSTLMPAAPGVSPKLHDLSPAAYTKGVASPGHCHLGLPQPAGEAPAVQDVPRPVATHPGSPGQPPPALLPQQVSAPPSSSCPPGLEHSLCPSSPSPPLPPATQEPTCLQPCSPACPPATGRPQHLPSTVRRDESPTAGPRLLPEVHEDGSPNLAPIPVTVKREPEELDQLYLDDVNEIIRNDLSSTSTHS

Molecular target: RFP-tagged PIM1 (human) (UniProt P11309)
Assay: FRET or BRET; FLIM: GFP lifetime measured in fixed (4% PFA) PC-3 cells transiently co-transfected with GFP-NFATC1 and RFP-PIM1; cells treated overnight with DMSO or 10 uM DHPCC-9; the lowest negative control (GFP + RFP) value was set as the limit for physical interaction

binding	Substance
binds	GFP-tagged multi mutant (MM) NFATC1 (from UniProt O95644)
binds	GFP-tagged wild-type NFATC1 (from UniProt O95644-2)
